# In patent US4778784A, “Cyclic peptide and method of use for inducing an immunological response to hepatitis B virus” (Baylor College of Medicine, priority 1987, dated 1988):
# Not every detail of the peptide structures is certain; ends, links or a residue may be inferred.
# Tests used:
# [1] = system: anti-a monoclonal antibodies; test: Inhibition of binding of anti-a monoclonal antibodies to HBsAg-coated solid phase (micro-SPRIA); conditions: for % Inhibition of the reaction between the monoclonal antibody and HBsAg-coated wells: Table 9
# [2] = system: anti-y monoclonal antibodies; test: Inhibition of binding of anti-y monoclonal antibodies to HBsAg-coated solid phase; conditions: for % Inhibition of Binding: blocking with 80 μg Cyclic Peptide 1
# [3] = system: anti-w monoclonal antibody; test: Inhibition of binding of anti-w monoclonal antibody to HBsAg-coated solid phase; conditions: for % Inhibition of Binding: blocking with 80 μg Cyclic Peptide 1, mAb W-1
# [4] = system: common anti-HBs idiotype (CId)-anti-idiotype reaction; test: Inhibition of the common anti-HBs idiotype binding its anti-idiotype antiserum; design: species or system human
structure (smiles),measurement,setting,value
CSCC[C@@H]1NC(=O)[C@H](CO)NC(=O)[C@H]([C@@H](C)O)NC(=O)CNC(=O)[C@H](CCC(N)=O)NC(=O)[C@H](C)NC(=O)[C@H]([C@@H](C)O)NC(=O)[C@H]([C@@H](C)O)NC(=O)[C@H](CCSC)NC(=O)[C@@H](NC(=O)[C@@H](NC(=O)[C@@H](N)CCCCN)[C@@H](C)O)CSSC[C@@H](C(=O)O)NC(=O)[C@H](CO)NC(=O)[C@@H]2CCCN2C(=O)[C@H](Cc2ccc(O)cc2)NC1=O [peptide 1],inhibition of monoclonal antibody A-4,[1],inhibited to a significant degree
same,% Inhibition of Binding,"[1]; Table 6, blocking with 80 μg Cyclic Peptide 1, mAb A-2, coating HBsAg adw",43%
same,% Inhibition of Binding,"[1]; Table 6, blocking with 80 μg Cyclic Peptide 1, mAb A-4, coating HBsAg adw",31.8%
same,% Inhibition of Binding,"[1]; Table 6, blocking with 80 μg Cyclic Peptide 1, mAb A-12, coating HBsAg adw",41%
same,% Inhibition of Binding,"[1]; Table 6, blocking with 80 μg Cyclic Peptide 1, mAb A-12, coating HBsAg ayw",57%
same,% Inhibition of Binding,"[1]; Table 6, blocking with 80 μg Cyclic Peptide 1, mAb A-13, coating HBsAg adw",47%
same,% Inhibition of Binding,"[1]; Table 6, blocking with 80 μg Cyclic Peptide 1, mAb A-13, coating HBsAg ayw",28%
same,% Inhibition of the reaction between the monoclonal antibody and HBsAg-coated wells,"[1]; mAb A-2, epitope specificity a",36-88%
same,% Inhibition of the reaction between the monoclonal antibody and HBsAg-coated wells,"[1]; mAb A-4, epitope specificity a",31-64%
same,% Inhibition of the reaction between the monoclonal antibody and HBsAg-coated wells,"[1]; mAb A-12, epitope specificity a",55-67%
same,% Inhibition of the reaction between the monoclonal antibody and HBsAg-coated wells,"[1]; mAb A-16, epitope specificity a",0%
same,% Inhibition of Binding,"[1]; blocking with 80 μg Cyclic peptide 1, mAb A-1, coating HBsAg adr",6.1%
same,% Inhibition of Binding,"[1]; blocking with 80 μg Cyclic peptide 1, mAb A-1, coating HBsAg adw",9.7%
same,% Inhibition of Binding,"[1]; blocking with 80 μg Cyclic peptide 1, mAb A-1, coating HBsAg ayw",4.7%
same,% Inhibition of Binding,"[1]; blocking with 80 μg Cyclic peptide 1, mAb A-2, coating HBsAg adr",87.7%
same,% Inhibition of Binding,"[1]; blocking with 80 μg Cyclic peptide 1, mAb A-2, coating HBsAg adw",35.7%
same,% Inhibition of Binding,"[1]; blocking with 80 μg Cyclic peptide 1, mAb A-2, coating HBsAg ayw",42.4%
same,% Inhibition of Binding,"[1]; blocking with 80 μg Cyclic peptide 1, mAb A-4, coating HBsAg adr",31.2%
same,% Inhibition of Binding,"[1]; blocking with 80 μg Cyclic peptide 1, mAb A-4, coating HBsAg adw",34.0%
same,% Inhibition of Binding,"[1]; blocking with 80 μg Cyclic peptide 1, mAb A-4, coating HBsAg ayw",63.6%
same,% Inhibition of Binding,"[1]; blocking with 80 μg Cyclic peptide 1, mAb A-6, coating HBsAg adr",6.2%
same,% Inhibition of Binding,"[1]; blocking with 80 μg Cyclic peptide 1, mAb A-6, coating HBsAg adw",0%
same,% Inhibition of Binding,"[1]; blocking with 80 μg Cyclic peptide 1, mAb A-6, coating HBsAg ayw",0%
same,% Inhibition of Binding,"[1]; blocking with 80 μg Cyclic peptide 1, mAb A-7, coating HBsAg adr",0%
same,% Inhibition of Binding,"[1]; blocking with 80 μg Cyclic peptide 1, mAb A-7, coating HBsAg adw",0%
same,% Inhibition of Binding,"[1]; blocking with 80 μg Cyclic peptide 1, mAb A-7, coating HBsAg ayw",2%
same,% Inhibition of Binding,"[1]; blocking with 80 μg Cyclic peptide 1, mAb A-8, coating HBsAg adr",0%
same,% Inhibition of Binding,"[1]; blocking with 80 μg Cyclic peptide 1, mAb A-8, coating HBsAg adw",0%
same,% Inhibition of Binding,"[1]; blocking with 80 μg Cyclic peptide 1, mAb A-8, coating HBsAg ayw",10.5%
same,% Inhibition of Binding,"[1]; blocking with 80 μg Cyclic peptide 1, mAb A-10, coating HBsAg adr",0%
same,% Inhibition of Binding,"[1]; blocking with 80 μg Cyclic peptide 1, mAb A-10, coating HBsAg adw",0%
same,% Inhibition of Binding,"[1]; blocking with 80 μg Cyclic peptide 1, mAb A-10, coating HBsAg ayw",0%
same,% Inhibition of Binding,"[1]; blocking with 80 μg Cyclic peptide 1, mAb A-11, coating HBsAg adr",1.9%
same,% Inhibition of Binding,"[1]; blocking with 80 μg Cyclic peptide 1, mAb A-11, coating HBsAg adw",0%
same,% Inhibition of Binding,"[1]; blocking with 80 μg Cyclic peptide 1, mAb A-11, coating HBsAg ayw",1.8%
same,% Inhibition of Binding,"[1]; blocking with 80 μg Cyclic peptide 1, mAb A-12, coating HBsAg adr",54.7%
same,% Inhibition of Binding,"[1]; blocking with 80 μg Cyclic peptide 1, mAb A-12, coating HBsAg adw",67.0%
same,% Inhibition of Binding,"[1]; blocking with 80 μg Cyclic peptide 1, mAb A-12, coating HBsAg ayw",66.8%
same,% Inhibition of Binding,"[1]; blocking with 80 μg Cyclic peptide 1, mAb A-13, coating HBsAg adr",42.7%
same,% Inhibition of Binding,"[1]; blocking with 80 μg Cyclic peptide 1, mAb A-13, coating HBsAg adw",47.2%
same,% Inhibition of Binding,"[1]; blocking with 80 μg Cyclic peptide 1, mAb A-13, coating HBsAg ayw",51.8%
same,% Inhibition of Binding,"[1]; blocking with 80 μg Cyclic peptide 1, mAb A-14, coating HBsAg adr",13.5%
same,% Inhibition of Binding,"[1]; blocking with 80 μg Cyclic peptide 1, mAb A-14, coating HBsAg adw",15.2%
same,% Inhibition of Binding,"[1]; blocking with 80 μg Cyclic peptide 1, mAb A-14, coating HBsAg ayw",2.6%
same,% Inhibition of Binding,"[1]; blocking with 80 μg Cyclic peptide 1, mAb A-15, coating HBsAg adr",32.1%
same,% Inhibition of Binding,"[1]; blocking with 80 μg Cyclic peptide 1, mAb A-15, coating HBsAg adw",21.8%
same,% Inhibition of Binding,"[1]; blocking with 80 μg Cyclic peptide 1, mAb A-15, coating HBsAg ayw",23.2%
same,% Inhibition of Binding,"[1]; blocking with 80 μg Cyclic peptide 1, mAb A-16, coating HBsAg adr",0%
same,% Inhibition of Binding,"[1]; blocking with 80 μg Cyclic peptide 1, mAb A-16, coating HBsAg adw",0%
same,% Inhibition of Binding,"[1]; blocking with 80 μg Cyclic peptide 1, mAb A-16, coating HBsAg ayw",0.2%
same,% Inhibition of Binding,"[1]; blocking with 80 μg Cyclic peptide 1, mAb Hyb-1, coating HBsAg adw",0%
same,% Inhibition of Binding,"[1]; blocking with 80 μg Cyclic peptide 1, mAb Hyb-1, coating HBsAg ayw",5.0%
same,excess on a weight basis compared to HBsAg necessary to achieve an equivalent degree of inhibition of A-12,"[1]; monoclonal A-12, HBsAg/adw, FIG. 5",3000 fold
same,blocking of reactivity of Y-3 and Hyb-2 with ayw and adr coating antigens,[2],blocked only the reactivity with the ayw coating antigen
same,"reaction with anti-y monoclonal antibodies Y-3, Y-2 and Hyb-2",[2],reacted
same,% Inhibition of the reaction between the monoclonal antibody and HBsAg-coated wells,"[2]; Table 9, mAb Y-2, epitope specificity y",40-47%
same,% Inhibition of Binding,"[2]; mAb Hyb-2 (10^-4), coating HBsAg adr",1.2%
same,% Inhibition of Binding,"[2]; mAb Hyb-2 (10^-4), coating HBsAg ayw",1.3%
same,% Inhibition of Binding,"[2]; mAb Hyb-2 (10^-5), coating HBsAg adr",0%
same,% Inhibition of Binding,"[2]; mAb Hyb-2 (10^-5), coating HBsAg ayw",24%
same,% Inhibition of Binding,"[2]; mAb Y-2 (10^-1), coating HBsAg ayw",4%
same,% Inhibition of Binding,"[2]; mAb Y-2 (10^-2), coating HBsAg ayw",37.5%
same,% Inhibition of Binding,"[2]; mAb Y-2 (10^-3), coating HBsAg ayw",46.8%
same,% Inhibition of Binding,"[2]; mAb Y-3 (10^-1), coating HBsAg adr",6%
same,% Inhibition of Binding,"[2]; mAb Y-3 (10^-1), coating HBsAg ayw",17.5%
same,% Inhibition of Binding,"[2]; mAb Y-3 (10^-2), coating HBsAg adr",0%
same,% Inhibition of Binding,"[2]; mAb Y-3 (10^-2), coating HBsAg ayw",31.2%
same,inhibition of reactivity of the monoclonal antibody that recognized the w subtype epitope,[3],No inhibition
same,% Inhibition of the reaction between the monoclonal antibody and HBsAg-coated wells,"[3]; Table 9, mAb W-1, epitope specificity w",0%
same,% Inhibition of Binding,[3]; coating HBsAg adw,0.8%
same,% Inhibition of Binding,[3]; coating HBsAg ayw,0.3%
same,inhibition of the CId-anti-idiotype reaction,[4],efficiently inhibited
same,Percent Inhibition of the Common Anti-HBs Idiotype Binding Its Anti-Idiotype Antiserum,[4]; Concentration 2.5 μg,30%
same,Percent Inhibition of the Common Anti-HBs Idiotype Binding Its Anti-Idiotype Antiserum,[4]; Concentration 25 μg,33%
same,Percent Inhibition of the Common Anti-HBs Idiotype Binding Its Anti-Idiotype Antiserum,[4]; Concentration 250 μg,63%
CSCC[C@@H]1NC(=O)[C@H](CO)NC(=O)[C@H]([C@@H](C)O)NC(=O)CNC(=O)[C@H](CCC(N)=O)NC(=O)[C@H](C)NC(=O)[C@H]([C@@H](C)O)NC(=O)[C@H]([C@@H](C)O)NC(=O)[C@H](CCSC)NC(=O)[C@@H](NC(=O)[C@@H](NC(=O)[C@H](CCCCN)NC(=O)[C@H](CO)NC(=O)[C@@H]2CCCN2C(=O)CNC(=O)[C@@H](NC(=O)[C@@H](N)CO)[C@@H](C)O)[C@@H](C)O)CSSC[C@@H](C(=O)O)NC(=O)[C@H](CO)NC(=O)[C@@H]2CCCN2C(=O)[C@H](Cc2ccc(O)cc2)NC1=O [peptide 2],inhibition of the CId-anti-idiotype reaction,[4],efficiently inhibited
